Results published in PubChem BioAssay AID602254 (Broad Institute, 2012).
Among all 1,000 compounds or so, fewer than 10 were called active.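 Rule for the calls: active = fitted half-maximal concentration no higher than twice the top valid tested dose, with signal falling; inconclusive = flat curve with 30 to 70% inhibition, or poor fit; inactive = the rest.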 Some of the results follow. Entries with a potency or affinity are not part of this list.

Each compound was assayed against Golgi-associated PDZ and coiled-coil motif-containing protein (Homo sapiens) (UniProt Q9HD26) (assay: CAL PDZ domain peptide-binding inhibitors, dose response, biochemical, fluorescence polarization, untagged CAL PDZ, cherry-pick, set 2 (AID 602254;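 note: 0% = DMSO neutral control and -100% = unlabeled peptide PRC23 positive control; more negative means stronger blocking of peptide binding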)). Details: Purified CAL PDZ, TMR peptide fluorescence polarization; at 60 µM (top of the series).

SMILES | activity change, negative = inhibition
Cc1cc(NC(=O)CN(C)S(=O)(=O)c2cccc(Cl)c2)no1 | inactive: -2.42%
COc1ccc2oc(=O)c(C(=O)Nc3ccccc3O)cc2c1 | inactive: -3.2%
CCn1cc(CN2CCCC(C(=O)Nc3cccc(-c4cc5ccccc5[nH]4)c3)C2)cn1 (stereo not drawn) | inactive: -1.19%
O=C(NNC(=O)C1CCC1)c1ccc(Br)cc1 | inactive: -0.869%
COC(=O)c1c(C)nc2nonc2c1N | inactive: 0.881%
COc1ccccc1NC(=O)Nc1ccnn1Cc1cccs1 | inactive: -4.14%
CCCCc1ncc(CN2CCC(n3nccc3NC(=O)c3ccccc3OC)CC2)[nH]1 | inactive: -1.59%
Oc1ccc(/C=C/c2ccc3ccccc3n2)cc1 | inactive: -4.31%
COc1ccc(NC(=O)NC2(C(=O)N3CCN(C)CC3)CCCCC2)cc1 | inactive: 1.07%
Cc1ccc(N2CCN(CCCCN3C(=O)C4CCCN4C3=O)CC2)cc1 (stereo not drawn) | inactive: -1.07%
CCn1nnc(NC(=O)Cc2ccc(Cl)cc2)n1 | inactive: -0.719%
COc1cccc(OC)c1C(=O)Nc1cccc(C(C)=O)c1 | inactive: -0.101%
Fc1cccc(Cc2noc(CN3CCSCC3)n2)c1 | inactive: 2.57%
COCn1c(-c2ccc(OC)cc2)nc2ccccc21 | inactive: 1.04%
O=C(c1ccc2nc[nH]c2c1)N1CCc2ccccc2C1 | inactive: 1.11%
O=C(NCc1ccc(Cl)cc1)c1ccc(CNc2c(N3CCOCC3)c(=O)c2=O)cc1 | inactive: -0.987%
O=C(NCCc1ccccc1)c1ccc(NC(=O)C2CC2)cc1 | inactive: -0.339%
CCSc1ccccc1C(=O)NCCc1ccccc1 | inactive: -8.58%
O=S(=O)(c1ccc2c(c1)CCCN2)N1CCCC1 | inactive: -1.73%
CCN(CC)S(=O)(=O)c1ccc(NC(=S)NC(=O)C2CCC2)cc1 | inactive: -0.169%
CC(C)(CN1CCCC1)NC(=O)C1CCC(=O)N(CCCN2CCOCC2)C1 (stereo not drawn) | inactive: -2.01%
COc1cccc(/C=N/NC(=O)c2c(C)nc3ccc(Cl)cn23)c1O | inactive: 0.561%
CCOCCc1nnc(NC(=O)C2CC(=O)N(CCc3ccc(F)cc3)C2)s1 (stereo not drawn) | inactive: 3.61%
Cn1cccc1/C=C1\SC(=S)N(NC(=O)c2ccc(Cl)cc2)C1=O | inactive: -0.393%

SMILES | activity change, negative = inhibition
Cc1cccc(N2CCN(CC3CCCCC3)CC2)c1C | inactive: -2%
CSc1cccc(NC(=O)CNC(=O)c2ccc3c(c2)OCO3)c1 | inactive: -11.1%
Cc1ccc(CNC(=O)C(c2ccccc2)c2ccccc2)cc1 | inactive: -2.21%
O=C(NCCN1CCN(C(=O)c2ccccc2Cl)CC1)C(=O)NCc1ccccc1 | inactive: 1.78%
CNS(=O)(=O)c1cccc(C(=O)OCC(=O)c2ccc3c(c2)OCCO3)c1 | inactive: 1.8%
Cc1ccc(NC(=O)CN(C)C(=O)COc2cccc3ccc(C)nc23)cc1 | inactive: -0.235%
COc1ccc(N(CC(=O)N2CCCCCC2)S(=O)(=O)c2ccc(OC)c(OC)c2)cc1 | inactive: -1.11%
Cc1ccc(N2CCN(S(=O)(=O)c3ccc(-n4cnnn4)cc3)CC2)c(C)c1 | inactive: -0.268%
C=CCNc1cnn(-c2ccc(C)cc2)c(=O)c1Cl | inactive: 1.23%
CCOc1ccc(NC(=O)CN2CCN(CC(=O)Nc3ccccc3OC)CC2)cc1 | inactive: -1.63%
COc1ccc(CCC(=O)NNC(=O)c2ccccn2)cc1OC | inactive: -1.4%
O=C(Nc1ccccc1C(=O)O)c1cccc(N2C(=O)c3ccccc3C2=O)c1 | inactive: 3.93%
NC(=O)COC(=O)c1ccc(NS(=O)(=O)c2ccc3c(c2)OCCO3)cc1 | inactive: -5.43%
Nc1nonc1C(=O)NCCNCc1ccccc1OCc1ccccc1F | inactive: 2.24%
CC(=O)c1sc(NC(=O)CCCc2nc3ccccc3c(=O)[nH]2)nc1-c1ccccc1 | inactive: 4.64%
Oc1ccccc1-c1nnc(SCCN2CCOCC2)n1Cc1ccccc1 | inactive: 3.38%
Cc1ccc(S(=O)(=O)NC(CC(C)C)C(=O)N2CC(C)OC(C)C2)cc1 (stereo not drawn) | inactive: 0.893%
CC1CN(S(=O)(=O)c2ccc(CN3C(=O)c4cccnc4C3=O)s2)c2ccccc2O1 (stereo not drawn) | inactive: -1.12%
O=C(NCC1CCCN(Cc2cccc(F)c2)C1)c1cccc2ccccc12 (stereo not drawn) | inactive: -1.19%
Cc1cc(C(=O)COc2ccccc2Cl)c(C)n1-c1ccc2c(c1)OCO2 | inactive: 2.31%
Cc1ccc(C(=O)Nc2cccc(C(=O)N3CCOCC3)c2)cc1Cl | inactive: 4.43%
O=C(O)CCCC(=O)Nc1ccc(N2CCCC2)cc1 | inactive: 0.225%
CCCCNC(=O)Nc1ccccc1CC | inactive: 7.33%
CN1C(C)(C)CC(=NOC(=O)c2ccccc2)CC1(C)C | inactive: -1.53%

Grouped by structure, those above containing a thiophene ring, fused or not
SMILES | activity change, negative = inhibition
COc1ccccc1NC(=O)Nc1ccnn1Cc1cccs1 | inactive: -4.14%
CC1CN(S(=O)(=O)c2ccc(CN3C(=O)c4cccnc4C3=O)s2)c2ccccc2O1 (stereo not drawn) | inactive: -1.12%
